# In the supplement of paper PMC10735217:
# Where a name gives a salt, the structure may show the parent alone. The list shows a part of the results. Repeats in this data set agree poorly, so a single value says little.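 Human kidney-derived cells stably carry a construct in which eight TEAD-binding elements drive luciferase, measured by luminescence in a drug-repurposing library screen. A hit is any compound whose signal exceeds the plate mean by more than five robust Z scores.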
# System: HEK293A TEAD-LUC reporter
# Experiment: TEAD-luciferase reporter activity (YAP activation), robust Z score vs plate; higher = stronger YAP/TEAD activation
# Settings: 24 h
SMILES,TEAD-luciferase reporter activity (compound concentration: 200 nM),TEAD-luciferase reporter activity (compound concentration: 2 uM),TEAD-luciferase reporter activity (compound concentration: 10 uM)
CCc1cc(CC[C@]2(C3CCCC3)CC(O)=C(Cc3nc4nc(C)cc(C)n4n3)C(=O)O2)cc(CC)n1 [Filibuvir],inactive: -1.8,inactive: 0.772,inactive: 0.623
CC1(CN)Cc2ccccc2C1,inactive: 3.83,inactive: -2.39,inactive: 0.232
C=C[C@H]1CN2CCC1C[C@@H]2[C@@H](O)c1ccnc2ccc(OC)cc12 (some centres undefined) [Quinidine],inactive: 1.77,inactive: -0.0658,inactive: 4.22
CCN(CCO)CCCOc1ccc2c(Nc3cc(CC(=O)Nc4cccc(F)c4)[nH]n3)ncnc2c1 [Barasertib-HQPA],inactive: -1.06,inactive: -1.3,inactive: 0.922
O=C(O)c1ccc(Oc2ccc3c(c2)COB3O)c(O)c1,inactive: 0.419,inactive: 1.18,inactive: 1.87
O=C1C=CN(c2c(F)cc(N3C[C@H](CNc4ccon4)OC3=O)c(F)c2F)CC1,inactive: 2.09,inactive: 0.477,inactive: 0.167
COc1cc2nc(N3CCN(C(=O)c4ccco4)CC3)nc(N)c2cc1OC [Prazosin],inactive: -3.49,,inactive: 1.71
COc1cc2nc(N3CCN(C(=O)c4ccco4)CC3)nc(N)c2cc1OC [prazosin],,inactive: 0.238,
CSc1ccccc1N(Cc1cccc(C(F)(F)F)c1)C(=O)CN(CCN(C)C)C(=O)OCC(C)C,inactive: -0.743,inactive: -0.203,inactive: 2.02
CN(C)CCC(Oc1ccc2c(c1)C(=O)CC(c1ccccc1)O2)c1ccccc1 (centres undefined),inactive: 1.04,inactive: -1.19,inactive: -1.16
Fc1cnc(Cl)nc1NCc1ccc(CNc2ccnc(NCCN3CCOCC3)n2)cc1,inactive: -0.63,inactive: -0.542,inactive: -0.0234
CCCCC[C@H](O)/C=C/[C@@H]1[C@@H](C/C=C\CCCC(=O)OC(C)C)[C@@H](O)C[C@H]1O [PGF2alpha-IE],inactive: -1.91,inactive: 0.553,active: 10.3
CC(C)(C)c1cc(C2CCCCC2)ccc1OC(=O)c1ccccn1,inactive: 0.99,inactive: 0.353,inactive: -1.18
COc1cc2ncnc3c2cc1OCCCCCN(C)Cc1ccc(Br)cc1N3,inactive: -0.576,inactive: -0.392,inactive: 1.3
O=C(c1ccccc1)N1CCC(C(=O)N2CCC(N3Cc4ccccc4C3=O)CC2)CC1,inactive: -0.232,,inactive: 2.95
COc1c(N2CC[C@@H](C(C)(C)N)C2)ccc2c(=O)c(C(=O)O)cn(C3CC3)c12,inactive: 0.048,inactive: 0.654,inactive: 0.66
COC(=O)[C@H](Cc1ccc(-c2ccccc2)cc1)NC(=O)c1ccc(-c2ccc(C(F)(F)F)cc2)cc1,inactive: -0.546,inactive: -0.903,inactive: 0.159
CNC(=O)c1cc(Oc2ccc3nc(N[C@@H]4CCCC[C@H]4O)sc3c2)ccn1,inactive: -0.979,inactive: 1.77,inactive: 2.07
CCN(CC)CC(=O)Nc1c(C)cc(C)cc1C,,inactive: -1.56,

SMILES,TEAD-luciferase reporter activity (compound concentration: 200 nM),TEAD-luciferase reporter activity (compound concentration: 2 uM),TEAD-luciferase reporter activity (compound concentration: 10 uM)
CCN(CC)CC(=O)Nc1c(C)cc(C)cc1C [Trimecaine],inactive: 0.19,,inactive: -0.677
COc1ccc(CN2C(=O)C(C)SC2c2cccnc2)cc1 (centres undefined),inactive: -1.1,inactive: 0.207,inactive: -1.16
CC(C)NCC(O)COc1ccc(COCCOC(C)C)cc1 (centres undefined) [Bisoprolol Hemifumarate],,inactive: -0.511,
CC(C)NCC(O)COc1ccc(COCCOC(C)C)cc1 (centres undefined),inactive: -2.13,,inactive: -0.638
CC(=O)NCCc1c(Cc2ccccc2)[nH]c2ccccc12,inactive: -1.52,inactive: 3.17,inactive: 0.217
CC(C)N1C(=O)C(C)(C)Oc2ccc(C(=O)N=C(N)N)cc21,inactive: 1.28,inactive: -0.27,active: 6
O=C1NCc2ccccc2CC12CCCCN2Cc1cccc(F)c1F (centres undefined),inactive: 0.777,,inactive: -0.735
CC[C@H](C)[C@H](NC(=O)OCc1ccccc1)C(=O)N[C@@H](CCC(=O)OC(C)(C)C)C(=O)N[C@@H](C)C(=O)N[C@H](C=O)CC(C)C,inactive: -1.29,,inactive: 0.283
COc1cc(N)c(Cl)cc1C(=O)NCCC1(N(C)C)CCCCC1,inactive: -0.247,inactive: -0.28,inactive: 1.22
NC1=NCC(CN2CCN(c3ccccc3)CC2)O1 (centres undefined),inactive: 0.732,inactive: 0.387,inactive: -1.32
CN(C(=O)n1cnc(-c2ccc[n+]([O-])c2)c1)C1CCCCC1,inactive: 0.198,inactive: -1.05,inactive: 0.968
CCCCCCCCCCCC(=O)c1c(O)c(C(=O)CCCCCCCCCCC)c(O)c(C2CC(c3ccc(O)cc3)Oc3cc(O)ccc32)c1O (centres undefined),,inactive: -0.22,inactive: -1
CCN[C@H]1C[C@H](C)S(=O)(=O)c2sc(S(N)(=O)=O)cc21 [Dorzolamide Hydrochloride],,inactive: -0.794,
CCN[C@H]1C[C@H](C)S(=O)(=O)c2sc(S(N)(=O)=O)cc21,inactive: -1.25,inactive: -0.398,inactive: 4.31
CC(C)(Oc1ccc(Cl)cc1)C(=O)N[C@@H](C(=O)N[C@@H]1C(=O)N2[C@@H]1SC(C)(C)[C@@H]2C(=O)O)c1ccccc1,inactive: 0.377,inactive: 0.478,inactive: -1.12
CCCCN1CCC(n2c(O)nc3ccccc32)CC1,inactive: 0.246,inactive: -1.89,inactive: 2.22
CCCCCCCCCCCCCCCCCCNC(=O)OCC(COC(=O)N(Cc1cccc[n+]1CC)C(C)=O)OC (centres undefined),inactive: -0.0723,inactive: -1.27,inactive: -0.225
NS(=O)(=O)c1cc2c(cc1Cl)NC(C(Cl)(Cl)Cl)NS2(=O)=O (centres undefined),inactive: 0.379,inactive: 0.116,inactive: -1.36
CC[C@H](C)[C@H](NC(=O)[C@H](Cc1ccc(O)cc1)NC(=O)[C@@H](NC(=O)[C@H](CCCNC(=N)N)NC(=O)[C@@H](N)CC(=O)O)C(C)C)C(=O)N[C@@H](Cc1c[nH]cn1)C(=O)N1CCC[C@H]1C(=O)N[C@@H](Cc1ccccc1)C(=O)O [Human angiotensin II],inactive: 2.08,inactive: -1.36,inactive: 3.31

# 2 records picked at random from those above, as already listed:
SMILES,TEAD-luciferase reporter activity (compound concentration: 200 nM),TEAD-luciferase reporter activity (compound concentration: 2 uM),TEAD-luciferase reporter activity (compound concentration: 10 uM)
COC(=O)[C@H](Cc1ccc(-c2ccccc2)cc1)NC(=O)c1ccc(-c2ccc(C(F)(F)F)cc2)cc1,inactive: -0.546,inactive: -0.903,inactive: 0.159
CC(C)NCC(O)COc1ccc(COCCOC(C)C)cc1 (centres undefined),inactive: -2.13,,inactive: -0.638
